Laboratory results taken from US20040018580A1, “Synthetic substrates for prostasin” (priority 2002, published 2004).
No constants are given. Whether binding was seen depends on the method and setting. Some entries that bind do so weakly or less than the wild type. For some of these results: Tags and fused reporters may be left off the sequences shown.

By UniProt entry, the sequences of proteins in these tests, tags left out. Residues count along the entry.
UniProt Q16651, residues 33-322: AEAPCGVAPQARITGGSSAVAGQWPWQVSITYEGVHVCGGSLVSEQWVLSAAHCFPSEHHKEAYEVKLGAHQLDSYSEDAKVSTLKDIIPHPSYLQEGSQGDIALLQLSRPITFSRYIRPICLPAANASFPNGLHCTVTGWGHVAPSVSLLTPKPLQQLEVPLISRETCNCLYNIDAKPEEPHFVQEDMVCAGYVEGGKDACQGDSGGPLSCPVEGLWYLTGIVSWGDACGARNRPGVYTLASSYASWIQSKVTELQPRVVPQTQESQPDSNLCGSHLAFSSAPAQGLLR

B1: mouse prostasin-binding protein (mPBP) (protein, UniProt Q07235 20-397, looked up)
chain: SQFNSLSLEELGSNTGIQVFNQIIKSRPHENVVVSPHGIASILGMLQLGADGKTKKQLSTVMRYNVNGVGKVLKKINKAIVSKKNKDIVTVANAVFLRNGFKMEVPFAVRNKDVFQCEVQNVNFQDPASASESINFWVKNETRGMIDNLLSPNLIDGALTRLVLVNAVYFKGLWKSRFQPESTKKRTFVAGDGKSYQVPMLAQLSVFRSGSTRTPNGLWYNFIELPYHGESISMLIALPTESSTPLSAIIPHITTKTIDSWMNTMVPKRMQLVLPKFTAVAQTDLKEPLKALGITEMFEPSKANFTKITRSESLHVSHILQKAKIEVSEDGTKASAATTAILIARSSPPWFIVDRPFLFSIRHNPTGAILFLGQVNKP
B2: GST-mPN-1 (protein, mouse, UniProt Q07235 20-397, looked up, not shown: a dimerising Fc or GST)
chain: B1 chain
B3: GST-hPN-1 (protein, human, UniProt P07093 20-398, looked up, not shown: a dimerising Fc or GST)
chain: SHFNPLSLEELGSNTGIQVFNQIVKSRPHDNIVISPHGIASVLGMLQLGADGRTKKQLAMVMRYGVNGVGKILKKINKAIVSKKNKDIVTVANAVFVKNASEIEVPFVTRNKDVFQCEVRNVNFEDPASACDSINAWVKNETRDMIDNLLSPDLIDGVLTRLVLVNAVYFKGLWKSRFQPENTKKRTFVAADGKSYQVPMLAQLSVFRCGSTSAPNDLWYNFIELPYHGESISMLIALPTESSTPLSAIIPHISTKTIDSWMSIMVPKRVQVILPKFTAVAQTDLKEPLKVLGITDMFDSSKANFAKITTGSENLHVSHILQKAKIEVSEDGTKASAATTAILIARSSPPWFIVDRPFLFFIRHNPTGAVLFMGQINKP

Legend:
prostasin [1] = molecular target: T1, prostasin (Homo sapiens, UniProt Q16651); assay: complex formation at different pH, western blot
prostasin [2] = molecular target: T1, prostasin; assay: prostasin-binding assay, SDS-PAGE and western blot
prostasin [3] = molecular target: T1, prostasin; assay: incubation with prostasin, SDS-PAGE and immunoblot

Binder | binding (prostasin [1]) | binding (prostasin [2]) | binding (prostasin [3])
B1 | binds | binds | –
B2 | – | – | binds
B3 | – | – | binds
